Experimental data published in PubChem BioAssay (EPA / NIEHS).
This list was built around the results that the source calls inconclusive (neither active nor inactive); the mix of calls is not that of the screen. For some assays here: Potencies beside an inconclusive call are fits to weak or partial responses and may not hold up. Activity calls are given as the source filed them. Rule for the calls: active = hit-call score of the fitted dose curve at least 0.9, where 1 is the maximum; inconclusive = response in the unintended direction; inactive = score below 0.9.

By UniProt entry, the sequences of proteins in these tests, tags left out. Where a name states a change or a piece, a line headed by the entry shows the natural chain unless it says otherwise.
UniProt P09237: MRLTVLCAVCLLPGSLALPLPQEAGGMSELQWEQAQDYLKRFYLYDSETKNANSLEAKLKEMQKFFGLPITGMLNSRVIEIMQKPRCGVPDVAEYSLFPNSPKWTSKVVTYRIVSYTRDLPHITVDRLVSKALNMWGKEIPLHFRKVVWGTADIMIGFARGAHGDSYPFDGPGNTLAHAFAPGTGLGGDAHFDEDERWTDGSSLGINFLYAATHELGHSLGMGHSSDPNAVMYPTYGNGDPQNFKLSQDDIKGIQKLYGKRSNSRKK
UniProt P07948: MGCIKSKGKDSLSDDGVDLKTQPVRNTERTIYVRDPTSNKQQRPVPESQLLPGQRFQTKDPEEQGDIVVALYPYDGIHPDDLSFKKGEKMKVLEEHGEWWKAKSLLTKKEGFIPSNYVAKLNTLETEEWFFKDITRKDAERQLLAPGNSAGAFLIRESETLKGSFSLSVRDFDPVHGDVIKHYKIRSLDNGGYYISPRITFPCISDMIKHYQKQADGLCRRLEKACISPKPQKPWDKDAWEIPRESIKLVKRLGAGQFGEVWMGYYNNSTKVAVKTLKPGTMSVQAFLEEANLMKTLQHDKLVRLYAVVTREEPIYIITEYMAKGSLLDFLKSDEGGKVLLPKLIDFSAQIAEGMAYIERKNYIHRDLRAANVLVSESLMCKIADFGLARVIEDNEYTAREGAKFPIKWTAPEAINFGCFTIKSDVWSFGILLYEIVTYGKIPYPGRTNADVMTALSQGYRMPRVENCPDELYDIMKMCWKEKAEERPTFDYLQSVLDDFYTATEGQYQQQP
UniProt P00567: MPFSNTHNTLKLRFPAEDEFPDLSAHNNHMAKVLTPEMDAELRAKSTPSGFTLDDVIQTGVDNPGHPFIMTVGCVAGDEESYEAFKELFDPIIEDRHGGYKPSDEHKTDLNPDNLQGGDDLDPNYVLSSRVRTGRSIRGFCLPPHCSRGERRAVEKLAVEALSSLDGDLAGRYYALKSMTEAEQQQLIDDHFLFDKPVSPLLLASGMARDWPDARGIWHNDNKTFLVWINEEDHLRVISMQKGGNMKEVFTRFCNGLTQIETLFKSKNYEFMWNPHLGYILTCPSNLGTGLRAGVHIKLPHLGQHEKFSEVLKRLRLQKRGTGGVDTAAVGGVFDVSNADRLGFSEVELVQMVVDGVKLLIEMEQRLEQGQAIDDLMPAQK
UniProt P11509: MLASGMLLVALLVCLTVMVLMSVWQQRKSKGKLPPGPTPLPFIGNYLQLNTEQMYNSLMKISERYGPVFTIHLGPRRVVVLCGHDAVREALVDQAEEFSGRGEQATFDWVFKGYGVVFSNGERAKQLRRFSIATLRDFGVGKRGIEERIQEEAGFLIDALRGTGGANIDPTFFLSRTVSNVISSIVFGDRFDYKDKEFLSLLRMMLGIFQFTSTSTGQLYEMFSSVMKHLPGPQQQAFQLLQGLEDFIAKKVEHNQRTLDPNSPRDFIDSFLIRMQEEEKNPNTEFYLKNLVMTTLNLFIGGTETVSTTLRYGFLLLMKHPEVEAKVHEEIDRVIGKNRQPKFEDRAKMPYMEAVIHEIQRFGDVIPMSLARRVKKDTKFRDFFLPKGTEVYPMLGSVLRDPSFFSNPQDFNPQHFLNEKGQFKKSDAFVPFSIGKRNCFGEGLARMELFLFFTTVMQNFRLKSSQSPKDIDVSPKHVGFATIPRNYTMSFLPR
UniProt Q96EB6: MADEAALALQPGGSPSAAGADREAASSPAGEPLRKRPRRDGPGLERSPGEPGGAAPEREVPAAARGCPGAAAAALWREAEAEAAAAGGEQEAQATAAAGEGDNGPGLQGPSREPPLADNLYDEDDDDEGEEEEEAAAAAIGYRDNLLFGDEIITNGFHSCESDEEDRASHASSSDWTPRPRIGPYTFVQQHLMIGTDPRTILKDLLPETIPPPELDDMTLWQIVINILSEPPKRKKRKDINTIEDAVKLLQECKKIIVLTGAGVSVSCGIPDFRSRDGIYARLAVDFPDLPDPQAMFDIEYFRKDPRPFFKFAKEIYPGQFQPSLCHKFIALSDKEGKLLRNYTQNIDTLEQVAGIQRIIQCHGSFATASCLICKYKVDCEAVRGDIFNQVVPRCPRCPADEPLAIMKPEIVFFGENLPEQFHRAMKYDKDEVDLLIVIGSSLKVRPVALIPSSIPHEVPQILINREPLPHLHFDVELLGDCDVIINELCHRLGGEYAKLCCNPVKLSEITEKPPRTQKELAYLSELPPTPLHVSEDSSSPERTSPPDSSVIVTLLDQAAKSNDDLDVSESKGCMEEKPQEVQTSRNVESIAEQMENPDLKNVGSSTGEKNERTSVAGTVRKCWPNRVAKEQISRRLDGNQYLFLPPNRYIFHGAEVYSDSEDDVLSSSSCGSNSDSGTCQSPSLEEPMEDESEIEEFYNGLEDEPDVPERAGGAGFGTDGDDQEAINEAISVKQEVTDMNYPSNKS
UniProt P41144: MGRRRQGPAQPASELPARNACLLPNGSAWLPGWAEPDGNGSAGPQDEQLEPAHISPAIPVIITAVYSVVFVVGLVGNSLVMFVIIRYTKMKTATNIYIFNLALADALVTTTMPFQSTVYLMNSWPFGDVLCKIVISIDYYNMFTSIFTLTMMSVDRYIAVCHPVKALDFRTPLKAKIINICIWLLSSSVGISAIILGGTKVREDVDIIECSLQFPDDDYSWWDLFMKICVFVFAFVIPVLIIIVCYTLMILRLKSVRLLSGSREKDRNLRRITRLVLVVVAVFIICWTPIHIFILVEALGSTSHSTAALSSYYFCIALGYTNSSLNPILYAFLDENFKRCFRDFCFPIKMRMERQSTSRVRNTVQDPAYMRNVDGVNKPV
UniProt P08588, whole entry, looked up: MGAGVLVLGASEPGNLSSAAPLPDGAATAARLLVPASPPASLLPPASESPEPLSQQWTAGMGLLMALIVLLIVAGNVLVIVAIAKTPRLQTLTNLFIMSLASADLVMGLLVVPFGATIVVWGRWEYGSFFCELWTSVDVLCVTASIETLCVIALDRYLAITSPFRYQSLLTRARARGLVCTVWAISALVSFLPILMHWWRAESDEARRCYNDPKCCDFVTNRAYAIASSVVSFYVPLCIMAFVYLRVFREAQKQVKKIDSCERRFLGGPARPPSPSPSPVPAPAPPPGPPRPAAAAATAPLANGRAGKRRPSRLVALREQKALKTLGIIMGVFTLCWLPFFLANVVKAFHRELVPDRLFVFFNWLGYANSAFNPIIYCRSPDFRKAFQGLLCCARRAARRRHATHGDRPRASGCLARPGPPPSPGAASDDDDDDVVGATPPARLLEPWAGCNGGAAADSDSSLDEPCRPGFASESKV
UniProt P13945: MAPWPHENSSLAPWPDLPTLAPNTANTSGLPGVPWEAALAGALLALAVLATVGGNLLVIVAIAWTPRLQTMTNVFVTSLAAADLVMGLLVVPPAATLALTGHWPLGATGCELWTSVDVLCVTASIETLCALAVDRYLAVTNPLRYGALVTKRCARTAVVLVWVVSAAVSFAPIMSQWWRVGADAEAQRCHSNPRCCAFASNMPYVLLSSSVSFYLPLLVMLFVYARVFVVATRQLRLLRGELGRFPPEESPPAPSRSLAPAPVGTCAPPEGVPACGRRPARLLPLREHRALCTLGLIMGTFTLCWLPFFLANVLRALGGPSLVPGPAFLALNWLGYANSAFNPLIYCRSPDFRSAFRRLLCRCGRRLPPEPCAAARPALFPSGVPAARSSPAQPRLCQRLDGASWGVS
UniProt P21917, whole entry, looked up: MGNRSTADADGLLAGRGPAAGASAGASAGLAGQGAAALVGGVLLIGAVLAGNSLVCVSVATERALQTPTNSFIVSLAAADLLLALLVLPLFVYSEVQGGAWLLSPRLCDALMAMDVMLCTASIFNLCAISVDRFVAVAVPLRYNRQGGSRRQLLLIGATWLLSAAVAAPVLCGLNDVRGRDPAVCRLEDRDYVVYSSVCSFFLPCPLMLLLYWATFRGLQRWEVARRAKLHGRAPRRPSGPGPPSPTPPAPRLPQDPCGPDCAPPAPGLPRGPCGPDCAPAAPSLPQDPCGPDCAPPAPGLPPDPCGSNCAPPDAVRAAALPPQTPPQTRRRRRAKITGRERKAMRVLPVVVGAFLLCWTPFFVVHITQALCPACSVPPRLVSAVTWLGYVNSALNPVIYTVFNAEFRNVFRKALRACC
UniProt P35367, whole entry, looked up: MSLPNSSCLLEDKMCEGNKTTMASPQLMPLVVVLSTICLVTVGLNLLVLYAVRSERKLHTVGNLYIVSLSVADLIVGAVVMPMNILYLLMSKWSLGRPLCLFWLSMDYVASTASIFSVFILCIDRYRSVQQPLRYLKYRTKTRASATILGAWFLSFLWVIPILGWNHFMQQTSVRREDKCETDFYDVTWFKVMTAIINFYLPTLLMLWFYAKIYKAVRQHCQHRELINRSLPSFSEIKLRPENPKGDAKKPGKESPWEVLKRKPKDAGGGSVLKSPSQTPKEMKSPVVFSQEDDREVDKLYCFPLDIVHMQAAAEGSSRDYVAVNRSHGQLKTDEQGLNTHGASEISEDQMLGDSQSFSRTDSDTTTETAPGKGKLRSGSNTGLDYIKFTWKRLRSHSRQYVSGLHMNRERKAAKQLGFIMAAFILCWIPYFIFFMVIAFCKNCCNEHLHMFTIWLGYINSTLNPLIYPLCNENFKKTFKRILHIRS
UniProt P11229: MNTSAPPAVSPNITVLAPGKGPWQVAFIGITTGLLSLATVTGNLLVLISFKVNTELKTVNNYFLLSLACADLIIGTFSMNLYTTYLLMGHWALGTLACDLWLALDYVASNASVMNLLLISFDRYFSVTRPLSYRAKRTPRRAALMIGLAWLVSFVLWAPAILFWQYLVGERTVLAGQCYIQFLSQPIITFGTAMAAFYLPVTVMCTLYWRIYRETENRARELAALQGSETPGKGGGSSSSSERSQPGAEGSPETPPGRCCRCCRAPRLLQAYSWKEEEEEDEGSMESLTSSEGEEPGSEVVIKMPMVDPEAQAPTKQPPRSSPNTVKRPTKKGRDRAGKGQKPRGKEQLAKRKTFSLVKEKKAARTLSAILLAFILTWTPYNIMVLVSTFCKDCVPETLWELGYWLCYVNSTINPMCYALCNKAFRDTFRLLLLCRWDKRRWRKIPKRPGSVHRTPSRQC
UniProt P08912, whole entry, looked up: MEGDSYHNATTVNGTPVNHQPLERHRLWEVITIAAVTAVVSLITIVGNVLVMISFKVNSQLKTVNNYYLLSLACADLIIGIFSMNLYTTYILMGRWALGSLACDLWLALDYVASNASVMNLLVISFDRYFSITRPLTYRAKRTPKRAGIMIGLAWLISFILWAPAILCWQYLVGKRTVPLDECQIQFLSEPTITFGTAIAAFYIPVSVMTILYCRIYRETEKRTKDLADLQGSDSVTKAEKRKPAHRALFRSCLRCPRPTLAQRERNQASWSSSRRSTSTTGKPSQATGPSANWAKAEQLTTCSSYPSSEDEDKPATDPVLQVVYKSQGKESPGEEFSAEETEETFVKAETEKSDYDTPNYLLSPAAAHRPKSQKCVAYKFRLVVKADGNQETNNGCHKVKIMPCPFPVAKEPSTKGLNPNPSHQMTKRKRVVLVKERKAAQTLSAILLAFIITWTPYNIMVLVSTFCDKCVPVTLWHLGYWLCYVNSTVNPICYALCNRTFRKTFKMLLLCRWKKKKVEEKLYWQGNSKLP
UniProt P19327, whole entry, looked up: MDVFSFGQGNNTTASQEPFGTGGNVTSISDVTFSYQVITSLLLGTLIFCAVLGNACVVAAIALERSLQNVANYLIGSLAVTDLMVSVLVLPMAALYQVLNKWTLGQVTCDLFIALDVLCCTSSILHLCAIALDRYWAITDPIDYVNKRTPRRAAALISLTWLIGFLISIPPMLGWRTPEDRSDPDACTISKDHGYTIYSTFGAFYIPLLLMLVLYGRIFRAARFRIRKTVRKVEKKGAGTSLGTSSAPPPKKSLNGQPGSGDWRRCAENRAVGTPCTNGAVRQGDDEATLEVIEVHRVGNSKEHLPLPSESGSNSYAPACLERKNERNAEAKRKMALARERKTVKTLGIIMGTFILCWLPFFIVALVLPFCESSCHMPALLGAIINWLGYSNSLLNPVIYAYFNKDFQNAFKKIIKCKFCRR
UniProt P43140: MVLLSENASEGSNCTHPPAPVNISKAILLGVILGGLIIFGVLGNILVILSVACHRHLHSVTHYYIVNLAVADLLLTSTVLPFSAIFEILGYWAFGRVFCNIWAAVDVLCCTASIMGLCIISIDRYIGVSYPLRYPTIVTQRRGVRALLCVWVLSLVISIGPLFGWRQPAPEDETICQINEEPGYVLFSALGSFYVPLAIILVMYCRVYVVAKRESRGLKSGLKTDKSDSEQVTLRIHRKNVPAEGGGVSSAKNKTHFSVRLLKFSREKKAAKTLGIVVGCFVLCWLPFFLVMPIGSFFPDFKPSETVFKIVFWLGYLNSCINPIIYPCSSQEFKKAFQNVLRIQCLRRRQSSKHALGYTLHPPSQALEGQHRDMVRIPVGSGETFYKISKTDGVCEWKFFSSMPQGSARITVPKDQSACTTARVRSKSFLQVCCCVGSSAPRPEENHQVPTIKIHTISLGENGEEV

Assays:
[1] = tested on: frog Estrogen Receptor (ER2), gene 100174814; test: ATG_frER2_XSP2: Attagene TRANS-FACTORIAL Multi-Species (XSP2) HepG2 Assay for frog Estrogen Receptor (ER2) (AID 2283828)
In short: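 Human liver HepG2, transient MRTU transfection (TRANS format, exogenous NR–Gal4). 24 h cpd exposure. Total RNA → RT → PCR → FAM label → HpaI cut → CE. Positive direction vs DMSO.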

[2] = biological target: human Matrix Metalloproteinase-7 (MMP7), MMP7 (gene 4316) (UniProt P09237); test: NVS_ENZ_hMMP7: NovaScreen (NVS) Enzymatic Assay for human Matrix Metalloproteinase-7 (MMP7) (AID 2283183)
In short: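 Cell-free fluorescence enzymatic assay read 1 h after compound addition, activity loss analyzed against DMSO. Primary duplicate testing at 25 uM; compounds meeting threshold rerun in singleton concentration-response up to 50 uM.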

[3] = biological target: human LYN Proto-Oncogene, Src family Tyrosine Kinase (LynA), LYN (gene 4067) (UniProt P07948); test: NVS_ENZ_hLynA: NovaScreen (NVS) Enzymatic Assay for human LYN Proto-Oncogene, Src family Tyrosine Kinase (LynA) (AID 2283173)
In short: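 Recombinant kinase with fluorescent substrate; product separated from substrate by electrophoretic mobility shift and read 1 h after dosing. Duplicate screen at 25 uM, then concentration-response up to 50 uM; activity scored as signal loss against DMSO.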

[4] = biological target: rabbit Imidazoline 2 Central (I2C), CKB (gene 100009085) (UniProt P00567); test: NVS_ENZ_rabI2C: NovaScreen (NVS) Enzymatic Assay for rabbit Imidazoline 2 Central (I2C) (AID 2283228)
In short: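 Rabbit brain membranes, cell-free; readout by filter-based scintillation counting 1.5 hours after dosing, loss of signal vs DMSO. Initial duplicate test at 25 uM, then concentration-response with 50 uM top concentration.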

[5] = biological target: human CYP2A6, CYP2A6 (gene 1548) (UniProt P11509); test: NVS_ADME_hCYP2A6: NovaScreen (NVS) CYP450-related Enzyme Activity (ADME) Assay for human CYP2A6 (AID 2283099)
In short: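 Cell-free fluorescence readout of recombinant human CYP2A6 expressed in insect cells, read 0.5 h after dosing; loss of signal versus acetonitrile negative control. Primary screen in duplicate at 10 uM; actives re-run in concentration-response up to 20 uM.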

[6] = biological target: human Sirtuin 1 (SIRT1), SIRT1 (gene 23411) (UniProt Q96EB6); test: NVS_ENZ_hSIRT1: NovaScreen (NVS) Enzymatic Assay for human Sirtuin 1 (SIRT1) (AID 2283219)
In short: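 Cell-free recombinant SIRT1 with a fluorescent substrate; substrate and product separated by electrophoretic mobility shift and read by fluorescence intensity, 1 h after dosing. Primary screen at 25 uM in duplicate; hits re-run in concentration-response up to 50 uM, relative to DMSO.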

[7] = tested on: bovine Angiotensin II Receptor Type 2 (AT2), gene 407157; test: NVS_GPCR_bAT2: NovaScreen (NVS) G Protein-Coupled Receptor Assay for bovine Angiotensin II Receptor Type 2 (AT2) (AID 2283240)
In short: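 Radioligand displacement on bovine cerebellar membranes, 1 hour incubation, filter-based scintillation counting; loss of signal vs DMSO. Duplicate single-point screen at 25 uM, then concentration-response to 50 uM maximum.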

[8] = NVS_GPCR_bNPY_NonSelective: NovaScreen (NVS) G Protein-Coupled Receptor Assay for bovine Neuropeptide Y (NPY) Receptor, Non-selective Binding (AID 2283245)
In short: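 Bovine hippocampal membranes incubated 1 hour with radioligand and test chemical. Bound ligand measured by filter-based scintillation counting. Single-concentration screen at 25 uM in duplicate, then concentration-response up to 50 uM.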

[9] = biological target: guinea pig Opioid, Kappa 1 Receptor (OpiateK), OPRK1 (gene 100135587) (UniProt P41144); test: NVS_GPCR_gOpiateK: NovaScreen (NVS) G Protein-Coupled Receptor Assay for guinea pig Opioid, Kappa 1 Receptor (OpiateK) (AID 2283252);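 note: radioligand displacement from kappa opioid receptor in guinea pig cerebellar membranes; active means reduced radioligand binding relative to DMSO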
In short: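 Guinea pig cerebellar membranes were incubated with a radioligand for 2 h after compound addition; bound radioactivity was read by filter-based scintillation counting. Loss of specific binding relative to DMSO baseline defined activity; primary screen at 25 uM in duplicate.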

[10] = biological target: human Adrenergic, Beta 1 Receptor (Adrb1), ADRB1 (gene 153) (UniProt P08588); test: NVS_GPCR_hAdrb1: NovaScreen (NVS) G Protein-Coupled Receptor Assay for human Adrenergic, Beta 1 Receptor (Adrb1) (AID 2283258)
In short: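 Cell-free radioligand displacement on receptor from human neuroepithelioma cells; 2 h after dosing, filter-based scintillation counting. Primary screen in duplicate at 25 uM, actives retested in concentration series; loss of signal vs DMSO baseline.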

[11] = biological target: Beta-2 adrenergic receptor (Homo sapiens) (UniProt P07550); test: NVS_GPCR_hAdrb2: NovaScreen (NVS) G Protein-Coupled Receptor Assay for human Adrenergic, Beta 2 Receptor (Adrb2) (AID 2283261)
In short: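 Filter-based radioligand binding using receptor prepared from CHO cells, 1 h incubation, scintillation counting. Primary screen in duplicate at 25 uM, actives retested in concentration series; loss of binding relative to DMSO.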

[12] = biological target: human Adrenergic, Beta 3 Receptor (Adrb3), ADRB3 (gene 155) (UniProt P13945); test: NVS_GPCR_hAdrb3: NovaScreen (NVS) G Protein-Coupled Receptor Assay for human Adrenergic, Beta 3 Receptor (Adrb3) (AID 2283262)
In short: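 Membranes from SK-N-MC cells pretreated with isoproterenol and 8-bromo-cAMP were used in a radioligand competitive displacement binding assay. Binding was read by filter-based scintillation counting 1 hour after dosing. Primary screening was in duplicate at 25 uM, with concentration series in follow-up.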

[13] = biological target: Type-1 angiotensin II receptor (Homo sapiens) (UniProt P30556); test: NVS_GPCR_hAT1: NovaScreen (NVS) G Protein-Coupled Receptor Assay for human Angiotensin II receptor type 1 (AT1) (AID 2283263)
In short: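 Membranes from KAN-TS cells; radioligand competitive displacement, 3 h, filtration and scintillation counting. Single-point duplicate screen at 25 uM, then concentration-response up to 50 uM for hits; loss of signal fitted versus DMSO.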

[14] = biological target: human Dopamine Receptor D4.4 (DRD4.4), DRD4 (gene 1815) (UniProt P21917); test: NVS_GPCR_hDRD4.4: NovaScreen (NVS) G Protein-Coupled Receptor Assay for human Dopamine Receptor D4.4 (DRD4.4) (AID 2283264)
In short: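 Radioligand displacement on human DRD4.4 from CHO-derived membranes, 1 hour incubation, bound counts read by filtration and scintillation. Primary screen in duplicate at 25 uM; actives followed up in concentration series.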

[15] = biological target: human Histamine 1 Receptor (H1), HRH1 (gene 3269) (UniProt P35367); test: NVS_GPCR_hH1: NovaScreen (NVS) G Protein-Coupled Receptor Assay for human Histamine 1 Receptor (H1) (AID 2283268)
In short: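 Cell-free radioligand displacement at human H1 receptor, 1 h, filter scintillation counting; primary screen 25 uM in duplicate, hits in concentration series; loss of binding fitted vs DMSO.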

[16] = biological target: Muscarinic acetylcholine receptor M1 (Homo sapiens) (UniProt P11229); test: NVS_GPCR_hM1: NovaScreen (NVS) G Protein-Coupled Receptor Assay for human Muscarinic, M1 Receptor (AID 2283270)
In short: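 Cell-free radioligand displacement using membrane protein extracted from CHO cells, read by filter-based scintillation counting 1 h after dosing. Loss of bound signal fitted versus DMSO; primary screen single concentration 25 uM in duplicate, actives followed by concentration series.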

[17] = biological target: Muscarinic acetylcholine receptor M5 (Homo sapiens) (UniProt P08912); test: NVS_GPCR_hM5: NovaScreen (NVS) G Protein-Coupled Receptor Assay for human Muscarinic, M5 Receptor (AID 2283275)
In short: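 Radioligand displacement on CHO-derived membrane preparations, 1 h, filter-based scintillation counting. Single-concentration duplicate screen at 25 uM; hits (e.g. 30% inhibition) retested in singleton concentration-response up to 50 uM. Loss of binding fitted versus DMSO.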

[18] = tested on: rabbit Platelet Activating Factor Receptor (PAF), gene 100354046; test: NVS_GPCR_rabPAF: NovaScreen (NVS) G Protein-Coupled Receptor Assay for rabbit Platelet Activating Factor Receptor (PAF) (AID 2283287)
In short: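 Rabbit platelet membrane preparation; radioligand displacement read by filter-based scintillation counting 1 h after dosing, loss of signal versus DMSO. Primary screen in duplicate at 25 uM, actives followed up in concentration series.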

[19] = biological target: rat Serotonin, 5-Hydroxytryptamine Receptor (5HT), Non-Selective Binding, Htr1a (gene 24473) (UniProt P19327); test: NVS_GPCR_r5HT_NonSelective: NovaScreen (NVS) G Protein-Coupled Receptor Assay for rat Serotonin, 5-Hydroxytryptamine Receptor (5HT), Non-Selective Binding (AID 2283295)
In short: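 Radioligand displacement on rat cortical membranes, 1 h incubation, filter-based scintillation counting. Primary duplicates at 25 uM, actives retested in concentration series; loss of signal fitted against DMSO as baseline.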

[20] = biological target: rat Adrenergic, Alpha 1A Receptor (Adra1A), Adra1a (gene 29412) (UniProt P43140); test: NVS_GPCR_rAdra1A: NovaScreen (NVS) G Protein-Coupled Receptor Assay for rat Adrenergic, Alpha 1A Receptor (Adra1A) (AID 2283296)
In short: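 Rat cortical membranes pretreated with chlorethyl clonidine; competitive radioligand displacement, 1 h. Filter-based scintillation counting. Primary screen in duplicate at 25 uM, actives followed in concentration series.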

Measured: AC50

CCCCC(CC)COC(=O)c1ccc(O)cc1 (stereo not given)
inconclusive: [1] 59.4 µM

CC(C)COC(=O)CCCCC(=O)OCC(C)C
inconclusive: [2] 0.143 µM

CCCCCCC(C=O)=Cc1ccccc1
inconclusive: [3] 0.178 µM

CC(C)CCO
inconclusive: [4] 0.891 µM

CCCCCCCCCC
inactive: [10] | [18]
inconclusive: [5] 0.478 µM | [6] 25 µM | [7] 0.0968 µM | [8] 25 µM | [9] 6.55 µM | [11] 6.99 µM | [12] 0.383 µM | [13] 45.8 µM | [14] 0.137 µM | [15] 5.86 µM | [16] 4.96 µM | [17] 7.94 µM | [19] 0.208 µM | [20] 25 µM
